Measurements published in paper doi:10.1101/221093.
Where two headings read alike, the source gives them in different places. No constants are given. Whether binding was seen depends on the method and setting. Binding seen in cells or lysates may run through a third protein. Here binding means that the protein was enriched with, or labelled near, the bait; the list need not be complete. For some of these results: Where a sequence is shown, tags or fusion partners need not be part of it.

Amino acid sequences for entries named in this document (tags omitted). A change or cut given only in a name is not applied to a line headed by its entry.
UniProt Q99496, whole entry, stated change not applied: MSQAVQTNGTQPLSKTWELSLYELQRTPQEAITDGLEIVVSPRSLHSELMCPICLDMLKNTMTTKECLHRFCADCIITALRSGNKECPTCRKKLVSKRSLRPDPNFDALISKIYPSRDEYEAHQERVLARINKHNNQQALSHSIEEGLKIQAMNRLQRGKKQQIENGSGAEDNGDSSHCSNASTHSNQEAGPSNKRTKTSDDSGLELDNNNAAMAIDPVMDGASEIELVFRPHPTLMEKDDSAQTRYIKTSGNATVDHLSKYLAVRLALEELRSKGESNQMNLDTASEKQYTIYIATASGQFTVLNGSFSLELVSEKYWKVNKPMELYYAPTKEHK
UniProt Q9BSM1, whole entry: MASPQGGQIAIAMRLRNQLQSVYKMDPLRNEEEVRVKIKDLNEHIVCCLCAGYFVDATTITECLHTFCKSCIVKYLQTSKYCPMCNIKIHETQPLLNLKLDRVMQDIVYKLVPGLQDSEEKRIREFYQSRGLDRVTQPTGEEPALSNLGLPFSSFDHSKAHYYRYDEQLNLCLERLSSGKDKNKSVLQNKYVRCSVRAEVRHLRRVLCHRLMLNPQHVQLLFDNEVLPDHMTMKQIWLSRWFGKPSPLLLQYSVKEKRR

T1: KDM2B-EGFP (UniProt Q8NHM5)
T1 sequence: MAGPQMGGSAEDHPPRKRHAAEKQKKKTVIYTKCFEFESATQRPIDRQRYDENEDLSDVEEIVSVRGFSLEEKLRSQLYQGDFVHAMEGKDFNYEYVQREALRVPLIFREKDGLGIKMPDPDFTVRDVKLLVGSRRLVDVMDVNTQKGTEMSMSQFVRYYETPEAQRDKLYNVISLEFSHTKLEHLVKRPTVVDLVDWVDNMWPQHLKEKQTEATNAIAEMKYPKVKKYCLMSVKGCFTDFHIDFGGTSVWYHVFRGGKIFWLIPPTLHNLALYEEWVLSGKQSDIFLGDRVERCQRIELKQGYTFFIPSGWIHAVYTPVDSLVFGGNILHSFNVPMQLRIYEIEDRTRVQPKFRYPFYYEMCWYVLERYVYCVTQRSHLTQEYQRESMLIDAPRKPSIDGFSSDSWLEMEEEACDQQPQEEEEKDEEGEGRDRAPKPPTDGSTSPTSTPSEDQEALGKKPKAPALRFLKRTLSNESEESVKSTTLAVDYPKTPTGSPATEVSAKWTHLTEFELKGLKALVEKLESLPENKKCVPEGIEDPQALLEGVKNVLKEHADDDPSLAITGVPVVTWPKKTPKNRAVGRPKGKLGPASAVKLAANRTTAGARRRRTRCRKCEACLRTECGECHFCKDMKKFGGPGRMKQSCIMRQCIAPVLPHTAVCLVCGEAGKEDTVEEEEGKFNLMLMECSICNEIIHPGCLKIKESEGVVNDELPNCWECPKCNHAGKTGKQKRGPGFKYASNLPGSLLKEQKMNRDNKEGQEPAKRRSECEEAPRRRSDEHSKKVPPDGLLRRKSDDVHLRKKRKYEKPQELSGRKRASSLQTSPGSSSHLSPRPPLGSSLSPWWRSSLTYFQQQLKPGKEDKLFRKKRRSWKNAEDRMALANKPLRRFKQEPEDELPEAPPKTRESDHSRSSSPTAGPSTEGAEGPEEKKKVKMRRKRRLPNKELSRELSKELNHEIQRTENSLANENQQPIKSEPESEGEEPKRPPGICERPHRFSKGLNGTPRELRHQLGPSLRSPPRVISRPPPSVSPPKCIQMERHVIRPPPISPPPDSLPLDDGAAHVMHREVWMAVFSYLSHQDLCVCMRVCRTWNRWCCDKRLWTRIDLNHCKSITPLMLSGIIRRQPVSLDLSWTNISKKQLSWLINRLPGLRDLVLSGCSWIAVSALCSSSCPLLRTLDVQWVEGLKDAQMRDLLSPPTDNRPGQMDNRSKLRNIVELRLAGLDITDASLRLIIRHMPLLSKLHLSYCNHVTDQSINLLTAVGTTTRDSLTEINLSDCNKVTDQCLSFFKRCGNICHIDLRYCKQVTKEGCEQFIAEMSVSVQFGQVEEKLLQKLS

B1: CBX4 (protein, UniProt O00257 1-560)
chain: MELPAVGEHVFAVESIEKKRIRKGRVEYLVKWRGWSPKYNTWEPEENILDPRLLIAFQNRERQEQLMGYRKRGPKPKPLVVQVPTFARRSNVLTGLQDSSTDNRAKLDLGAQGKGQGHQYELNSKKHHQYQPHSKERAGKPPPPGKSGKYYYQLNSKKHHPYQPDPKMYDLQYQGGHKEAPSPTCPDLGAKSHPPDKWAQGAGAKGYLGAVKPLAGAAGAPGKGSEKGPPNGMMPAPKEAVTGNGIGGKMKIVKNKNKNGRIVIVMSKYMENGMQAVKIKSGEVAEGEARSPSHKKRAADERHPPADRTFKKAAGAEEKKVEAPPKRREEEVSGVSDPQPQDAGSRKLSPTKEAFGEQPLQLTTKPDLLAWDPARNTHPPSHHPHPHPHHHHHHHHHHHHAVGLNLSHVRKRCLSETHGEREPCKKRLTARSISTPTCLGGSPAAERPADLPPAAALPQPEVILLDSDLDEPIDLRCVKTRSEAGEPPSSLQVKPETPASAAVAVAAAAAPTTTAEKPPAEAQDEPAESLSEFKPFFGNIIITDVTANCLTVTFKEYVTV
B2: PCGF2 (endogenous) (protein, UniProt P35227 1-344)
chain: MHRTTRIKITELNPHLMCALCGGYFIDATTIVECLHSFCKTCIVRYLETNKYCPMCDVQVHKTRPLLSIRSDKTLQDIVYKLVPGLFKDEMKRRRDFYAAYPLTEVPNGSNEDRGEVLEQEKGALSDDEIVSLSIEFYEGARDRDEKKGPLENGDGDKEKTGVRFLRCPAAMTVMHLAKFLRNKMDVPSKYKVEVLYEDEPLKEYYTLMDIAYIYPWRRNGPLPLKYRVQPACKRLTLATVPTPSEGTNTSGASECESVSDKAPSPATLPATSSSLPSPATPSHGSPSSHGPPATHPTSPTPPSTASGATTAANGGSLNCLQTPSSTSRGRKMTVNGAPVPPLT

How the values were obtained:
Assay in all cases: affinity purification with mass spectrometry
EGFP-RING1B [1] = target: EGFP-RING1B (UniProt Q99496)
KDM2B-EGFP = target: T1, KDM2B-EGFP
PCGF1-EGFP = PCGF1-EGFP (UniProt Q9BSM1)
EGFP-RING1B [2] = target: EGFP-RING1B (UniProt Q99496); remark: listed apart in the source

Molecule	binding (EGFP-RING1B [1])	binding (KDM2B-EGFP)	binding (PCGF1-EGFP)	binding (EGFP-RING1B [2])
SCMH1 (from UniProt Q96GD3 1-660)	binds			
ubiquitin-specific protease 7 (USP7) (from UniProt Q93009 1-1102) (enzyme)	binds	binds	binds	
SCML2 (from UniProt Q9UQR0 1-700)	binds			
B1				binds
B2				binds
